No constants are given. Whether binding was seen depends on the method and setting. In cells and extracts the contact can be indirect. Some binding calls cover weakened binding; strength is not graded here.
Columns and labels:
[1] = biological target: IQ motif-containing GTPase-activating protein 1 (IQGAP1) (mouse (endogenous in macrophages)) (UniProt Q9JKF1); test: condition: only cells pretreated with arachidonic acid (AA); co-IP; as a1, macrophages pretreated with the protein kinase C activator arachidonic acid (AA) before LPS
[2] = biological target: IQ motif-containing GTPase-activating protein 1 (IQGAP1) (mouse (endogenous in macrophages)) (UniProt Q9JKF1); test: condition: only cells pretreated with Bryostatin (BST); co-IP; as a1, macrophages pretreated with the protein kinase C activator Bryostatin (BST) before LPS
[3] = biological target: IQ motif-containing GTPase-activating protein 1 (IQGAP1) (mouse (endogenous in macrophages)) (UniProt Q9JKF1); test: co-IP; IP of endogenous IQGAP1 from lysates of LPS-stimulated Pggt1b^Δ/Δ macrophages (NP-40 buffer: 150 mM NaCl, 1% NP40, 10% glycerol, 10 mM Tris-HCl pH 8; Protein G Sepharose), Western blot for Pyrin and IQGAP1
[4] = biological target: IQ motif-containing GTPase-activating protein 1 (IQGAP1) (mouse (endogenous in macrophages)) (UniProt Q9JKF1); test: condition: only cells pretreated with the RAC1 inhibitor EHT1864; co-IP; as a1, macrophages pretreated with the RAC1 inhibitor EHT1864 before LPS

By UniProt entry, the sequences of proteins in these tests, tags left out.
UniProt Q9JKF1: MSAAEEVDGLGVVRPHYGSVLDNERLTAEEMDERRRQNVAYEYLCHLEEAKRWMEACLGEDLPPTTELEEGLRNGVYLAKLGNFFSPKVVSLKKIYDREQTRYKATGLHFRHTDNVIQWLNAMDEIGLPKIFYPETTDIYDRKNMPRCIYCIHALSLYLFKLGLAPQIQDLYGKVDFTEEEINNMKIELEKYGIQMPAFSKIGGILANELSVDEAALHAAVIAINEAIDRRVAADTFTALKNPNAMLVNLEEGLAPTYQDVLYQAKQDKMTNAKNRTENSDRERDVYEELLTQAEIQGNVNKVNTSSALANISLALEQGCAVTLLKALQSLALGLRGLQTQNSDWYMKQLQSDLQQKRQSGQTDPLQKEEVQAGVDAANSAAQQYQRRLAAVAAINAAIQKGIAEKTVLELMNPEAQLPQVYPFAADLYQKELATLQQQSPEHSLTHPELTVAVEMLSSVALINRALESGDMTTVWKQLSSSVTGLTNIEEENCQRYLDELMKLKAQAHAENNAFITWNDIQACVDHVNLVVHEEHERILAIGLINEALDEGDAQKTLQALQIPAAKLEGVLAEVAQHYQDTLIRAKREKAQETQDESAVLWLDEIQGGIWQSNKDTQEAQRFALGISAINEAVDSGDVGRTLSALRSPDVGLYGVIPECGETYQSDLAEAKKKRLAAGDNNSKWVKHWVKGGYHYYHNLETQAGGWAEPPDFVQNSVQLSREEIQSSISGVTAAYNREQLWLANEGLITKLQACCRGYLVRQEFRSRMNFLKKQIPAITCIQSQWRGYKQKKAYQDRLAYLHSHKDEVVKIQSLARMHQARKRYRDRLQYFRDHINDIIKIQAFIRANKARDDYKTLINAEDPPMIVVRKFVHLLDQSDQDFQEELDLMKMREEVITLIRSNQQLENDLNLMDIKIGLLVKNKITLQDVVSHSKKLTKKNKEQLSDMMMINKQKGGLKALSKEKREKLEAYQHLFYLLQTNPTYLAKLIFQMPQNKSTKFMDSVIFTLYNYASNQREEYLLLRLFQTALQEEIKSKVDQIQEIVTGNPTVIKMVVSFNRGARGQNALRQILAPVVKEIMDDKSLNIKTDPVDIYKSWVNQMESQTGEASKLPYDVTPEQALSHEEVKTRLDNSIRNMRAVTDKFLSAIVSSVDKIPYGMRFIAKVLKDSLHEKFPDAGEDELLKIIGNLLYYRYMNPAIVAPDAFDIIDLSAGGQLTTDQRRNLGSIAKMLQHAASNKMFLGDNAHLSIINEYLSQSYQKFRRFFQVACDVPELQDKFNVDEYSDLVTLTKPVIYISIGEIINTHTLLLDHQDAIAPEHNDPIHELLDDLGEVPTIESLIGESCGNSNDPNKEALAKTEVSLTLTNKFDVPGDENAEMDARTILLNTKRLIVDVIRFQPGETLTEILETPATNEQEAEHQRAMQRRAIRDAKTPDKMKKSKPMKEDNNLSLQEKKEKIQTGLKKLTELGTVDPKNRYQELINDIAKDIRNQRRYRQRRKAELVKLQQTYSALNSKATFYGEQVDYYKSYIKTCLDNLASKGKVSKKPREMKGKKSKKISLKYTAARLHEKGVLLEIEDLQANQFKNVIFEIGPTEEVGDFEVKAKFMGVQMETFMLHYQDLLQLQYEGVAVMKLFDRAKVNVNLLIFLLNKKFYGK

binding [1]: no binding | binding [2]: no binding | binding [3]: binds | binding [4]: no binding
B1: Pyrin (protein, UniProt Q9JJ26 1-767)
chain: MAKTLGDHLLNTLEELLPYDFEKFKFKLQNTSLEKGHSKIPRGHMQMARPVKLASLLITYYGEEYAVRLTLQILRATNQRQLAEELRKATGTEHLIEENRVGGSVQSSVENKAKSVKVPDVPEGDGTQQNNDESDTLPSSQAEVGKGPQKKSLTKRKDQRGPESLDSQTKPWTRSTAPLYRRTQGTQSPGDKESTASAQLRRNVSSAGRLQGLYNNAPGRRESKKAEVYVYLPSGKKRPRSLEITTYSREGEPPNSEVLPTQEETRNGSLIRMRTATLNGRTTGALEKGTGIPEHSMVLDEKTFRNMSSKTSLIGEERCPTSWTENGNGSPETTESSGETAGSILSDPEVPLSLCEKPAKTPEDPASLGQAACEGRSQDKAVCPLCHTQEGDLRGDTCVQSSCSCSIAPGDPKASGRCSICFQCQGLLARKSCEAQSPQSLPQCPRHMKQVLLLFCEDHREPICLICRLSLEHQGHRVRPIEEAALEYKEQIREQLERLREMRGYVEEHRLQGDKKTDDFLKQTEIQKQKISCPLEKLYQLLEKQEQLFVTWLQELSQTISKVRETYYTRVSLLDEMIEELEAKQDQPEWDLMQDIGITLHRAKMMSASELLDTPPGVKEKLHLLYQKSKSVEKNMQCFSEMLSSEMAFSASDVAKWEGRQPSATQVQGLVPTVHLKCDGAHTQDCDVVFYPEREAGGSEPKDYLHPQPAQDTPELHEIHSRNNKRKFKSFLKWKPSFSRTDWRLRTCCYRDLDQAAAHPNLIFSMI
